{"sequences": {"note": "By UniProt entry, the sequences of proteins in these tests, tags left out.", "UniProt P25490": "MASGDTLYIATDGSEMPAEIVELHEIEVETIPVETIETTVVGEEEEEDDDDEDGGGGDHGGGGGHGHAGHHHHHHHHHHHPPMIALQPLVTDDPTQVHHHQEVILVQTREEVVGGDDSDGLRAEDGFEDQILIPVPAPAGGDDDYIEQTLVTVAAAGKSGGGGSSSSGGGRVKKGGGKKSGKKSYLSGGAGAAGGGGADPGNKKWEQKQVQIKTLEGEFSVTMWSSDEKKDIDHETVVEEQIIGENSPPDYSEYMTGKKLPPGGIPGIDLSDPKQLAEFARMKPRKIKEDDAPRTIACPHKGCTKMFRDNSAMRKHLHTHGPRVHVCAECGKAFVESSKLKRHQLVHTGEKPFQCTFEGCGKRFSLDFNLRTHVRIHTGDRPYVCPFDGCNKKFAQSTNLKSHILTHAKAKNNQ"}, "source": "paper PMC5520720", "target": "T1, N-myc and STAT interactor (NMI) (human (endogenous in human breast cancer cells)) (UniProt Q13287)", "T1 sequence": "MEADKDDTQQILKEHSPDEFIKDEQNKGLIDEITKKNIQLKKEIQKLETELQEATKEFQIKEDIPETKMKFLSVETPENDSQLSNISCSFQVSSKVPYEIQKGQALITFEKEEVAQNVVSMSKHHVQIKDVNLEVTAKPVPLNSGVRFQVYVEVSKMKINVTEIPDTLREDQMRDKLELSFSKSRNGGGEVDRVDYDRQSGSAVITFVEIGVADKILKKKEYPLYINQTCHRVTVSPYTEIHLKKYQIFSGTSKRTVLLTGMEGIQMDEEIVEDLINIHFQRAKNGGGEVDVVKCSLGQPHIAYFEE", "test": "co-IP; nuclear extracts of human breast cancer cells; antibody against NMI or YY1 (mouse IgG as control) overnight at 4 °C, protein A/G plus-agarose beads 2 h, washed with PBS, western blot", "note": "These are yes or no findings as the source states them, for the method shown. In cells and extracts the contact can be indirect. Some entries that bind do so weakly or less than the wild type. Tags and fused reporters may be left off the sequences shown.", "data": [{"substance": "YY1 (from UniProt P25490 1-414)", "values": [{"measurement": "binding", "value": "binds"}]}]}
